According to the supplement of paper PMC10849652:
This is one part of the list.

By UniProt entry, the sequences of proteins in these tests, tags left out. Where a name states a change or a piece, a line headed by the entry shows the natural chain unless it says otherwise.
UniProt O00422: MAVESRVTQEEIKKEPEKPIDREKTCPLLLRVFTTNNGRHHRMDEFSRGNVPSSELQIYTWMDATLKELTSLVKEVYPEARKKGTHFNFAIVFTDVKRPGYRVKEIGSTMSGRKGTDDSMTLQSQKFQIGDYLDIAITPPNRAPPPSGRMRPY
UniProt P67812: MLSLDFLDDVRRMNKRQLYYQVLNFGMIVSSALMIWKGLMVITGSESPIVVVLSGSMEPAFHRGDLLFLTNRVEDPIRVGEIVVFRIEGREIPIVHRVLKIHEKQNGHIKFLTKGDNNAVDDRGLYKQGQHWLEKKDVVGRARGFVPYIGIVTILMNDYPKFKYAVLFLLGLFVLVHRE
UniProt Q15404: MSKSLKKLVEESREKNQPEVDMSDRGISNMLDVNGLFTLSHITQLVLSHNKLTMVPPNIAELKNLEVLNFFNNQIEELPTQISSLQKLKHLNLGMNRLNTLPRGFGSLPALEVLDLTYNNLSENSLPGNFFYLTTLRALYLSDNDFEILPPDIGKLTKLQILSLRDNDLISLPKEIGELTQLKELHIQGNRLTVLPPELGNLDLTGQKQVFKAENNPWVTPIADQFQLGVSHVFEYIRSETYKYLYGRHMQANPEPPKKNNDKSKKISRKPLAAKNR
UniProt Q9Y3Z3: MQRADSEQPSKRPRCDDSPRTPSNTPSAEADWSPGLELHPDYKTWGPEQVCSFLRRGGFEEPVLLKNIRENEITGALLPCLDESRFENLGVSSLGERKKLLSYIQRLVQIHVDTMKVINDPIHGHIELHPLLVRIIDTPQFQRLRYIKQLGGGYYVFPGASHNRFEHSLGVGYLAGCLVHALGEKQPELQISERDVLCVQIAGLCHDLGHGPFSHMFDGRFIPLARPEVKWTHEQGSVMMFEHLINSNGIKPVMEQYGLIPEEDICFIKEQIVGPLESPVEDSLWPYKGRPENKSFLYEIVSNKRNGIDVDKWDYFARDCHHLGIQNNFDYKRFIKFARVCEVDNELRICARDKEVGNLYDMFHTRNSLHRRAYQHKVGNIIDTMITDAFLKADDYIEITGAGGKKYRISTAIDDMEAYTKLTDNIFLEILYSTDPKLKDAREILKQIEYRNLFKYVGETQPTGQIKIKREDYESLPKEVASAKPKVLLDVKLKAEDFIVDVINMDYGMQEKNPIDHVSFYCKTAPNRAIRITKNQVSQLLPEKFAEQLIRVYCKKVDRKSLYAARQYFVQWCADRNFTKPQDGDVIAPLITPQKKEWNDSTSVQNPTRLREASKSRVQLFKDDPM
UniProt Q9NRP4: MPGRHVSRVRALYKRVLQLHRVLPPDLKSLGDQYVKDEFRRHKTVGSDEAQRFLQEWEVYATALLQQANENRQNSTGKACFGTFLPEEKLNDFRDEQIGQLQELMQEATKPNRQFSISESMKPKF
UniProt Q14151: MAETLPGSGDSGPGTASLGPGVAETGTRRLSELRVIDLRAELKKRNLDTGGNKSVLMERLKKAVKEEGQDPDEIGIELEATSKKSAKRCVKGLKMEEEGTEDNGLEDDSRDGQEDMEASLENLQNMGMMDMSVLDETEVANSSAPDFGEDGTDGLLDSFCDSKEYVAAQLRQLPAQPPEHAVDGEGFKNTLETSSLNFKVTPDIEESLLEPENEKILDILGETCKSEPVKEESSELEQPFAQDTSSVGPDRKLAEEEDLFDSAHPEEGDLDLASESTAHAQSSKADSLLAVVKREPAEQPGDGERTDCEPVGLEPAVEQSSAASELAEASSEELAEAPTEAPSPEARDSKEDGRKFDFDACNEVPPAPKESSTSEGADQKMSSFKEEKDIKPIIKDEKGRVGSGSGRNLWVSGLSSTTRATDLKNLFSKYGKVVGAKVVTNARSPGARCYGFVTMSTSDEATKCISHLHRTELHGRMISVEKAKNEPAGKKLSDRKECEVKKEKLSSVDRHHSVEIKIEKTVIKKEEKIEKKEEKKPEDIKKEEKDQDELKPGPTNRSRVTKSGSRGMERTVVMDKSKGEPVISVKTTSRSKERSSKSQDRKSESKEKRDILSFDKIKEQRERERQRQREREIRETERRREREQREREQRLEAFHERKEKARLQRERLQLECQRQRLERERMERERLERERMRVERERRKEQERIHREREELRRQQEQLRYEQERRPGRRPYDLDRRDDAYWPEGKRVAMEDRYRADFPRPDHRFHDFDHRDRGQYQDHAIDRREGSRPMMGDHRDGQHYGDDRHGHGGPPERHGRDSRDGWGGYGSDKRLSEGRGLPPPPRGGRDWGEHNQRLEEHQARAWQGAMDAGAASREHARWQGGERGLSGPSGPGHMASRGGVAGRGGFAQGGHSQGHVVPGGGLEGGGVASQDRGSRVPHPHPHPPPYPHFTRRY
UniProt Q0VDG4: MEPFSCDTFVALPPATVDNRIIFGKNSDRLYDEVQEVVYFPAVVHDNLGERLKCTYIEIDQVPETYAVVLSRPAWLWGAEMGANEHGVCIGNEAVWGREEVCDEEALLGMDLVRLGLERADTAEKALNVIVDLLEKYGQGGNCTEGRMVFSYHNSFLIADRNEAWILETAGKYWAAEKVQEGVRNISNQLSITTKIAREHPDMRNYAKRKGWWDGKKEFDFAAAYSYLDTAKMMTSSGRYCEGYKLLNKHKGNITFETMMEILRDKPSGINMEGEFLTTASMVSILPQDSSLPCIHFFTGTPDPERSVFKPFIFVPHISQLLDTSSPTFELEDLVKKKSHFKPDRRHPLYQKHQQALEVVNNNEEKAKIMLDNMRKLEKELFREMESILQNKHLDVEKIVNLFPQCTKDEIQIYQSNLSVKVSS
UniProt O15126: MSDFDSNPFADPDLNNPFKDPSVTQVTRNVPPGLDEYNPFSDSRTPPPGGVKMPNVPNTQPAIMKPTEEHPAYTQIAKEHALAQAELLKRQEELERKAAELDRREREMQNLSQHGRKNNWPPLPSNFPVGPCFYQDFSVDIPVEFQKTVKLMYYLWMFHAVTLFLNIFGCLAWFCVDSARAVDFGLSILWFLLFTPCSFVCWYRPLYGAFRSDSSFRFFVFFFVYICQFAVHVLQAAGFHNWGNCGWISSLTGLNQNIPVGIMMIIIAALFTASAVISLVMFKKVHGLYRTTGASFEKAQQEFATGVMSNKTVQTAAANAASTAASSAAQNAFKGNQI
UniProt Q96T23: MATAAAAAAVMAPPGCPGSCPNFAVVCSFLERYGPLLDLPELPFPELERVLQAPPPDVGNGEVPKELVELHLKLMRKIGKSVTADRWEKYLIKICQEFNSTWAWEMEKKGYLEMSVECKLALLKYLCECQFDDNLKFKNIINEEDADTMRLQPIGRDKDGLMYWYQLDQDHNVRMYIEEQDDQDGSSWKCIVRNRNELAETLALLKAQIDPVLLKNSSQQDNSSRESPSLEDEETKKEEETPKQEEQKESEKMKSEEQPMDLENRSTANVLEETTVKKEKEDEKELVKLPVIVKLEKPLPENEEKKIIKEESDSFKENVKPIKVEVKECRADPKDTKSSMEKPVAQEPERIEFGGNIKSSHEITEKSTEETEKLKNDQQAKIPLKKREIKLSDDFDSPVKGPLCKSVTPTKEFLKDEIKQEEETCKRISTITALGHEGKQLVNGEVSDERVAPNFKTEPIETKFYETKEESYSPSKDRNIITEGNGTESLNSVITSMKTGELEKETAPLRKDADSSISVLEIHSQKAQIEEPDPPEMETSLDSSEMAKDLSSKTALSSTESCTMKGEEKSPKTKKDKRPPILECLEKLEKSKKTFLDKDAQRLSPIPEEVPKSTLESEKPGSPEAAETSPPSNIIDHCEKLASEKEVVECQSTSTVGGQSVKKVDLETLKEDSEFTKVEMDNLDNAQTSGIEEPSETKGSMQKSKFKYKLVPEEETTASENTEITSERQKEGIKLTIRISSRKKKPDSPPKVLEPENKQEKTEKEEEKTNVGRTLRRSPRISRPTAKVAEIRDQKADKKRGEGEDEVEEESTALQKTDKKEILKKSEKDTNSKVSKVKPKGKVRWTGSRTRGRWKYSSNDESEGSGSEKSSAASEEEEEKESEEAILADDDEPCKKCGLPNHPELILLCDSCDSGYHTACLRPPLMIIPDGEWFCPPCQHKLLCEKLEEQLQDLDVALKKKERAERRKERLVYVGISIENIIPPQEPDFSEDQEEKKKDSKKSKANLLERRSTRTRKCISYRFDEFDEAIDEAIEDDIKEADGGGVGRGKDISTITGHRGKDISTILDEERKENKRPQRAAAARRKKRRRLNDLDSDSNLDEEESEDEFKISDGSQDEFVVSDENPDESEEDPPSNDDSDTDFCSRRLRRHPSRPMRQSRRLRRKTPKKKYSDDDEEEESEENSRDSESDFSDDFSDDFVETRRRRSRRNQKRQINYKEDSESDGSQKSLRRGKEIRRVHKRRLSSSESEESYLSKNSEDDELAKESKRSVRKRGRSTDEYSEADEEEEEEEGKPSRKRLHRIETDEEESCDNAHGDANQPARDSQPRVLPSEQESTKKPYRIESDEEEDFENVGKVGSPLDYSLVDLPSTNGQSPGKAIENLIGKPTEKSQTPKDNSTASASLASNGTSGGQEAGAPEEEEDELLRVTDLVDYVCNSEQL
UniProt Q9Y3A4: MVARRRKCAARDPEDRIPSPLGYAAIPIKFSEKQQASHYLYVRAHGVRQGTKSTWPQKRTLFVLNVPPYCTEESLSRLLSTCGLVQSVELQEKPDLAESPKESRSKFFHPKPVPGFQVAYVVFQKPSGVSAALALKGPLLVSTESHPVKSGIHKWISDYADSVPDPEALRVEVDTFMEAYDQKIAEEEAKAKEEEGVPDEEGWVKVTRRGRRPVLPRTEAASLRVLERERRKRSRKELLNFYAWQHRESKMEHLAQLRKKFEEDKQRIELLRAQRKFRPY
UniProt O43818: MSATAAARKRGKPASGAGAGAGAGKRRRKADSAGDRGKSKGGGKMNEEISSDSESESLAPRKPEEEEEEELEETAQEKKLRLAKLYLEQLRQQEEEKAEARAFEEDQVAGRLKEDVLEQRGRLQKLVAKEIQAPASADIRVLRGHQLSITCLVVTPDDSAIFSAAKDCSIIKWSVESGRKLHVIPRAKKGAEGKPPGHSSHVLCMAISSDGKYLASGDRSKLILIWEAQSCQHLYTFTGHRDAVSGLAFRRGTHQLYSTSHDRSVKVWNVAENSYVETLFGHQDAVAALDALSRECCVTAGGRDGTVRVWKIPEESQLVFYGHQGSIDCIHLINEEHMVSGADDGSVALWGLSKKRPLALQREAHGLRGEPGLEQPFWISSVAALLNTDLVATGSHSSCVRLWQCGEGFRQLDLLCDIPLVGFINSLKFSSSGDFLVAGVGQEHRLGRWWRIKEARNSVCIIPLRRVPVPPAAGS
UniProt P31040: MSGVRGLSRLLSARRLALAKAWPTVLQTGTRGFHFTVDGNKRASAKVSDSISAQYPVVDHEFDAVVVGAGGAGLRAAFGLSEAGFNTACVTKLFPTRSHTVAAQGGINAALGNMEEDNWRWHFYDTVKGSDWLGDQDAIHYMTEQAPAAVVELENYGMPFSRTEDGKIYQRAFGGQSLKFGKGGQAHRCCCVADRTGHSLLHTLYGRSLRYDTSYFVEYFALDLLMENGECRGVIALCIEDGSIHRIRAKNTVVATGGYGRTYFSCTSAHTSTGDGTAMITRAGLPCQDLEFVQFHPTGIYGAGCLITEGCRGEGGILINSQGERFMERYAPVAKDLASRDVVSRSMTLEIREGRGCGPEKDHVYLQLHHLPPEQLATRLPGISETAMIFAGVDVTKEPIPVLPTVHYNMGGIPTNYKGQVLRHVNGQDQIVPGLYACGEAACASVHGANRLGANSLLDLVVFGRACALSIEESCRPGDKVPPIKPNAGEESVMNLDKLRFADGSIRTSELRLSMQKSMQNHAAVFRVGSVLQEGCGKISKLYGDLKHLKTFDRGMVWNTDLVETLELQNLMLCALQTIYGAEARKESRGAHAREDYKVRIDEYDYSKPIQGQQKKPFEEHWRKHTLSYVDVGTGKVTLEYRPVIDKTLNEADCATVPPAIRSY
UniProt P21912: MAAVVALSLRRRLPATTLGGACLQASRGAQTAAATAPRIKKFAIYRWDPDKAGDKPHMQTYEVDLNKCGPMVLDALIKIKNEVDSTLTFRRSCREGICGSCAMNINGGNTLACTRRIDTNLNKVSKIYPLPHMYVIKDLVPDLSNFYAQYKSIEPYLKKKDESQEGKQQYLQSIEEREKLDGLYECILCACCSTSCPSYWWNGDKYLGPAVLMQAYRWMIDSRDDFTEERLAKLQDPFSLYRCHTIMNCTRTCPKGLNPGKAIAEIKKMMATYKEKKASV
UniProt O14828: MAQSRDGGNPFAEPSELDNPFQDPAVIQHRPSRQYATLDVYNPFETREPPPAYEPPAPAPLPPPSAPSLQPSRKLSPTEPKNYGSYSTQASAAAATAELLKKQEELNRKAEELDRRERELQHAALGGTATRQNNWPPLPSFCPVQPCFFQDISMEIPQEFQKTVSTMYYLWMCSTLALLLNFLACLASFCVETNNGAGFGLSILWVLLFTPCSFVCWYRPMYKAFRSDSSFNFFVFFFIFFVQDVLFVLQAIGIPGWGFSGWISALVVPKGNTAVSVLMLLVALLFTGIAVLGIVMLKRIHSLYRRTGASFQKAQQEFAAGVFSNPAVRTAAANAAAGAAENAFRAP

What was measured:
Assay in all cases: log2 fold change, soluble protein after heating vs DMSO (PISA); higher = thermal stabilisation; K562 cells, 10 uM, 30 min; active = over 0.2 and 3.5 SD of the protein, either way, in both replicates (recomputed)
[1] = compound: CC1=C(C=C(C=C1)NC(=O)C2=CC(=CC=C2)C(C)(C)C#N)NC3=CC4=C(C=C3)N=CN(C4=O)C
Method in brief: (§1)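 K562 cells (2×10^6 cells/mL) were treated with 10 μM compound for 30 min, and aliquots were heated for 3 min over 48°C-58°C. Pooled aliquots were extracted in PBS with 0.5% NP-40 at 4°C, and the supernatant after 21,000xg for 90 min was measured by TMTpro 16plex LC-MS/MS with channel sums equalised. Reported thermal stability, relative to control samples and from duplicates, is a log2 fold change.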

[2] = compound: CC1=C(C=C(C=C1)NC(=O)C2=CC(=CC=C2)N(C)C)NC(=O)C3=CC=C(C=C3)O
Method in brief: as §1

[3] = compound: CC1=CC=C(C=C1)SC2=C3C=C(SC3=CN=C2)C(=O)N
Method in brief: as §1

[4] = compound: CC1=NC(=CC=C1)C2=C(N=C(N2)C(C)(C)C)C3=CC4=NC=CN=C4C=C3
Method in brief: as §1

Nexturastat A = compound: CCCCN(Cc1ccc(C(=O)NO)cc1)C(=O)Nc1ccccc1 [Nexturastat A]
Method in brief: as §1

vemurafenib = compound: CCCS(=O)(=O)Nc1ccc(F)c(C(=O)c2c[nH]c3ncc(-c4ccc(Cl)cc4)cc23)c1F [vemurafenib]
Method in brief: as §1

[5] = compound: CCCS(=O)(=O)Nc1ccc(F)c(C(=O)c2c[nH]c3ncc(Cl)cc23)c1F
Method in brief: as §1

[6] = compound: CCCc1cc(C)[nH]c(=O)c1CNC(=O)c1cc(-c2ccnc(N3CCN(C)CC3)c2)cc2c1cnn2C(C)C
Method in brief: as §1

givinostat = compound: CCN(CC)Cc1ccc2cc(COC(=O)Nc3ccc(C(=O)NO)cc3)ccc2c1 [givinostat]
Method in brief: as §1

barasertib = compound: CCN(CCCOc1ccc2c(Nc3cc(CC(=O)Nc4cccc(F)c4)[nH]n3)ncnc2c1)CCOP(=O)(O)O [barasertib]
Method in brief: as §1

Measured: log2 fold change

SACS (UniProt Q9NZJ4)
inactive: [1] -0.103 | [2] -0.023 | [3] -0.102 | [4] -0.063 | Nexturastat A -0.045 | vemurafenib 0.14 | [5] -0.11 | [6] -0.11 | givinostat 0.015 | barasertib 0.27

RWDD3 (UniProt Q9Y3V2)
inactive: [1] 0.012

SAP18 isoform 2 (UniProt O00422)
inactive: [1] 0.2 | [2] 0.074 | [3] -0.105 | [4] -0.038 | Nexturastat A 0.269 | vemurafenib -0.032 | [5] -0.02 | [6] 0.04 | givinostat -0.029 | barasertib -0.056

SARG (UniProt Q9BW04)
inactive: [1] -0.045 | [2] -0.056 | [3] 0.037 | [4] -0.017 | Nexturastat A -0.021 | vemurafenib 0.024 | [5] -0.009 | [6] 0.01 | givinostat 0.122 | barasertib -0.023

SEC11A isoform 3 (UniProt P67812)
inactive: [1] 0.011 | [2] -0.016 | [3] -0.05 | [4] -0.012 | Nexturastat A 0.006 | vemurafenib -0.038 | [5] -0.013 | [6] -0.001 | givinostat -0.01 | barasertib 0.024

RSU1 (UniProt Q15404)
inactive: [1] -0.05 | [2] 0.004 | [3] 0 | [4] 0.011 | Nexturastat A -0.087 | vemurafenib 0.003 | [5] 0.001 | [6] 0.03 | givinostat -0.013 | barasertib 0.008

SASH1 (UniProt O94885)
inactive: [1] 0.046 | [2] -0.013 | [3] 0.024 | [4] 0.01 | Nexturastat A 0.038 | vemurafenib -0.043 | [5] 0.097 | [6] -0.031 | givinostat -0.063 | barasertib 0.071

SAMHD1 (UniProt Q9Y3Z3)
inactive: [1] -0.079 | [2] 0.018 | [3] -0.013 | [4] 0.002 | Nexturastat A 0.009 | vemurafenib -0.018 | [5] -0.028 | [6] -0.032 | givinostat 0.05 | barasertib 0.009

SCAMP2 (UniProt H3BUB6)
inactive: [1] -0.349 | [2] 0.043 | [3] -0.166 | [4] -0.1 | Nexturastat A 0.12 | vemurafenib -0.266 | [5] -0.335 | [6] -0.232 | givinostat -0.024 | barasertib 0.034

SDHAF3 (UniProt Q9NRP4)
inactive: [1] 0.015 | [2] 0.036 | [3] 0.004 | [4] 0.043 | Nexturastat A -0.149 | vemurafenib 0.073 | [5] 0.015 | [6] -0.118 | givinostat -0.03 | barasertib 0.037

SAFB2 (UniProt Q14151)
inactive: [1] 0.011 | [2] 0.068 | [3] -0.024 | [4] 0.011 | Nexturastat A 0.203 | vemurafenib -0.048 | [5] -0.038 | [6] 0.097 | givinostat -0.011 | barasertib -0.029

SCRN3 (UniProt Q0VDG4)
inactive: [1] 0.017 | [2] 0.036 | [3] 0.016 | [4] -0.021 | Nexturastat A -0.007 | vemurafenib 0.038 | [5] -0.007 | [6] 0.025 | givinostat -0.081 | barasertib 0.014

SART3, A0A499FI31
inactive: [1] 0.015 | [2] -0.05 | [3] -0.014 | [4] 0.04 | Nexturastat A -0.043 | vemurafenib 0.023 | [5] 0.072 | [6] -0.013 | givinostat 0.012 | barasertib 0.022

SCAMP1 (UniProt O15126)
inactive: [1] -0.001 | [2] 0.113 | [3] -0.026 | [4] -0.012 | Nexturastat A 0.029 | vemurafenib -0.05 | [5] -0.059 | [6] -0.124 | givinostat 0.034 | barasertib -0.036

RSF1 (UniProt Q96T23)
inactive: [1] 0.111 | [2] -0.112 | [3] -0.015 | [4] 0.217 | Nexturastat A -0.091 | vemurafenib 0.119 | [5] 0.052 | [6] 0.029 | givinostat 0.084 | barasertib 0.095

RYBP (UniProt Q8N488)
inactive: [1] -0.046 | [2] 0.017 | [3] -0.116 | [4] 0.002 | Nexturastat A 0.02 | vemurafenib 0.032 | [5] -0.062 | [6] 0.022 | givinostat 0.005 | barasertib 0.047

RRP7A (UniProt Q9Y3A4)
inactive: [1] -0.03 | [2] -0.067 | [3] -0.157 | [4] 0.035 | Nexturastat A 0.313 | vemurafenib 0.072 | [5] -0.125 | [6] -0.039 | givinostat 0.092 | barasertib 0.014

SEC31A (UniProt O94979)
inactive: [1] -0.053 | [2] -0.052 | [3] 0.015 | [4] 0.019 | Nexturastat A 0.102 | vemurafenib 0.054 | [5] 0.064 | [6] -0.032 | givinostat 0.098 | barasertib 0.052

SAR1A (UniProt Q9NR31)
inactive: [1] 0.047 | [2] -0.029 | [3] -0.002 | [4] 0.096 | Nexturastat A -0.018 | vemurafenib 0.036 | [5] 0.009 | [6] 0 | givinostat 0.006 | barasertib 0.076

SEC24C (UniProt P53992)
inactive: [1] -0.01 | [2] -0.02 | [3] -0.002 | [4] 0.046 | Nexturastat A -0.036 | vemurafenib 0.051 | [5] 0.069 | [6] 0.036 | givinostat 0.028 | barasertib 0.006

SCG3 (UniProt Q8WXD2)
inactive: [1] 0.134 | [2] -0.105 | [3] -0.011 | [4] -0.05 | Nexturastat A -0.071 | vemurafenib 0.027 | [5] -0.041 | [6] 0.11 | givinostat -0.043 | barasertib 0.013

RRP9 (UniProt O43818)
inactive: [1] -0.03 | [2] 0.057 | [3] -0.046 | [4] -0.081 | Nexturastat A 0.095 | vemurafenib -0.026 | [5] -0.074 | [6] 0.009 | givinostat 0.047 | barasertib -0.084

SDHA (UniProt P31040)
inactive: [1] 0.034 | [2] 0.031 | [3] 0.01 | [4] 0.054 | Nexturastat A -0.072 | vemurafenib 0.008 | [5] 0.011 | [6] 0.029 | givinostat -0.019 | barasertib -0.052

RTRAF (UniProt Q9Y224)
inactive: [1] -0.012 | [2] -0.016 | [3] -0.038 | [4] -0.058 | Nexturastat A 0.088 | vemurafenib -0.074 | [5] -0.025 | [6] 0.03 | givinostat 0.009 | barasertib -0.009

Eight successive entries out of the list so far, quoted:
RSF1 (UniProt Q96T23)
inactive: [1] 0.111 | [2] -0.112 | [3] -0.015 | [4] 0.217 | Nexturastat A -0.091 | vemurafenib 0.119 | [5] 0.052 | [6] 0.029 | givinostat 0.084 | barasertib 0.095

RYBP (UniProt Q8N488)
inactive: [1] -0.046 | [2] 0.017 | [3] -0.116 | [4] 0.002 | Nexturastat A 0.02 | vemurafenib 0.032 | [5] -0.062 | [6] 0.022 | givinostat 0.005 | barasertib 0.047

RRP7A (UniProt Q9Y3A4)
inactive: [1] -0.03 | [2] -0.067 | [3] -0.157 | [4] 0.035 | Nexturastat A 0.313 | vemurafenib 0.072 | [5] -0.125 | [6] -0.039 | givinostat 0.092 | barasertib 0.014

SEC31A (UniProt O94979)
inactive: [1] -0.053 | [2] -0.052 | [3] 0.015 | [4] 0.019 | Nexturastat A 0.102 | vemurafenib 0.054 | [5] 0.064 | [6] -0.032 | givinostat 0.098 | barasertib 0.052

SAR1A (UniProt Q9NR31)
inactive: [1] 0.047 | [2] -0.029 | [3] -0.002 | [4] 0.096 | Nexturastat A -0.018 | vemurafenib 0.036 | [5] 0.009 | [6] 0 | givinostat 0.006 | barasertib 0.076

SEC24C (UniProt P53992)
inactive: [1] -0.01 | [2] -0.02 | [3] -0.002 | [4] 0.046 | Nexturastat A -0.036 | vemurafenib 0.051 | [5] 0.069 | [6] 0.036 | givinostat 0.028 | barasertib 0.006

SCG3 (UniProt Q8WXD2)
inactive: [1] 0.134 | [2] -0.105 | [3] -0.011 | [4] -0.05 | Nexturastat A -0.071 | vemurafenib 0.027 | [5] -0.041 | [6] 0.11 | givinostat -0.043 | barasertib 0.013

RRP9 (UniProt O43818)
inactive: [1] -0.03 | [2] 0.057 | [3] -0.046 | [4] -0.081 | Nexturastat A 0.095 | vemurafenib -0.026 | [5] -0.074 | [6] 0.009 | givinostat 0.047 | barasertib -0.084

Further results follow.

RUFY1 (UniProt Q96T51)
inactive: [1] 0.013 | [2] -0.011 | [3] -0.022 | [4] -0.035 | Nexturastat A 0.063 | vemurafenib 0.043 | [5] 0.059 | [6] 0.029 | givinostat 0.031 | barasertib 0.027

RSBN1 (UniProt Q5VWQ0)
inactive: [1] -0.083 | [2] -0.004 | [3] -0.019 | [4] -0.099 | Nexturastat A 0.343 | vemurafenib -0.136 | [5] -0.009 | [6] 0.065 | givinostat -0.067 | barasertib -0.023

SDHB (UniProt P21912)
inactive: [1] 0.003 | [2] 0.008 | [3] 0 | [4] -0.01 | Nexturastat A -0.036 | vemurafenib 0.016 | [5] 0.011 | [6] 0.141 | givinostat -0.024 | barasertib 0.012

SEC24A (UniProt O95486)
inactive: [1] 0.025 | [2] -0.089 | [3] 0 | [4] 0.012 | Nexturastat A -0.04 | vemurafenib 0.023 | [5] 0.051 | [6] 0.08 | givinostat 0.072 | barasertib 0.006

SCAMP3 (UniProt O14828)
inactive: [1] -0.014 | [2] 0.092 | [3] 0.007 | [4] 0.039 | Nexturastat A -0.099 | vemurafenib 0 | [5] 0.037 | [6] 0.296 | givinostat -0.001 | barasertib -0.013

SCO1 (UniProt O75880)
inactive: [1] -0.031 | [2] -0.028 | [3] 0.025 | [4] 0.021 | Nexturastat A -0.01 | vemurafenib 0.038 | [5] 0.033 | [6] -0.064 | givinostat 0.05 | barasertib 0.009

RRP12 (UniProt Q5JTH9)
inactive: [1] 0.036 | [2] -0.012 | [3] 0.094 | [4] -0.043 | Nexturastat A 0.371 | vemurafenib -0.087 | [5] -0.012 | [6] 0.074 | givinostat 0.209 | barasertib -0.018
